# Data reported in the supplement of paper PMC8728848.
# Some of the results follow.
# Columns and labels:
# Assay in all cases: glycan array binding signal (z-score within array); higher = stronger binding
# Conditions in all cases: glycan notation: IUPAC condensed, linker removed
# Gal(a1-6)Glc = target: Gal(a1-6)Glc
# Procedure, shortened: (§1)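 From the Consortium for Functional Glycomics database, 3228 arrays were curated, keeping only those whose protein sequence was available. Binding is given as a within-array Z-score averaged across arrays sharing a protein sequence and across linkers. Negative Z-scores can be read as non-binding.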
# Gal(b1-2)Gal = target: Gal(b1-2)Gal
# Procedure, shortened: as §1
# Gal(b1-3)Gal = target: Gal(b1-3)Gal
# Procedure, shortened: as §1
# Gal(b1-3)Gal(b1-4)GlcNAc = target: Gal(b1-3)Gal(b1-4)GlcNAc
# Procedure, shortened: as §1
# Gal(b1-3)GalNAc = target: Gal(b1-3)GalNAc
# Procedure, shortened: as §1
# [1] = target: Gal(b1-3)GalNAc(a1-3)[Fuc(a1-2)]Gal(b1-4)Glc
# Procedure, shortened: as §1
# [2] = target: Gal(b1-3)GalNAc(a1-3)[Fuc(a1-2)]Gal(b1-4)GlcNAc
# Procedure, shortened: as §1
# Gal(b1-3)GalNAc(b1-3)Gal = target: Gal(b1-3)GalNAc(b1-3)Gal
# Procedure, shortened: as §1
# [3] = target: Gal(b1-3)GalNAc(b1-3)Gal(a1-4)Gal(b1-4)Glc
# Procedure, shortened: as §1
# [4] = target: Gal(b1-3)GalNAc(b1-4)Gal(b1-4)Glc
# Procedure, shortened: as §1
# [5] = target: Gal(b1-3)GalNAc(b1-4)[Neu5Ac(a2-3)]Gal(b1-4)Glc
# Procedure, shortened: as §1
# Gal(b1-3)GlcNAc = target: Gal(b1-3)GlcNAc
# Procedure, shortened: as §1
# [6] = target: Gal(b1-3)GlcNAc(a1-3)Gal(b1-4)GlcNAc
# Procedure, shortened: as §1
# [7] = target: Gal(b1-3)GlcNAc(a1-6)Gal(b1-4)GlcNAc
# Procedure, shortened: as §1
# Gal(b1-3)GlcNAc(b1-2)Man = target: Gal(b1-3)GlcNAc(b1-2)Man
# Procedure, shortened: as §1
# [8] = target: Gal(b1-3)GlcNAc(b1-2)Man(a1-3)[Gal(b1-3)GlcNAc(b1-2)Man(a1-6)]Man(b1-4)GlcNAc(b1-4)GlcNAc
# Procedure, shortened: as §1
# [9] = target: Gal(b1-3)GlcNAc(b1-2)Man(a1-3)[Gal(b1-3)GlcNAc(b1-2)Man(a1-6)]Man(b1-4)GlcNAc(b1-4)[Fuc(a1-6)]GlcNAc
# Procedure, shortened: as §1
# [10] = target: Gal(b1-3)GlcNAc(b1-2)Man(a1-3)[GlcNAc(b1-4)][Gal(b1-3)GlcNAc(b1-2)Man(a1-6)]Man(b1-4)GlcNAc(b1-4)GlcNAc
# Procedure, shortened: as §1
# [11] = target: Gal(b1-3)GlcNAc(b1-2)[Gal(b1-3)GlcNAc(b1-6)]Man(a1-6)[Gal(b1-3)GlcNAc(b1-2)Man(a1-3)]Man(b1-4)GlcNAc(b1-4)GlcNAc
# Procedure, shortened: as §1
# [12] = target: Gal(b1-3)GlcNAc(b1-3)Gal(b1-3)GlcNAc
# Procedure, shortened: as §1
# [13] = target: Gal(b1-3)GlcNAc(b1-3)Gal(b1-4)Glc
# Procedure, shortened: as §1
# [14] = target: Gal(b1-3)GlcNAc(b1-3)Gal(b1-4)GlcNAc
# Procedure, shortened: as §1
# [15] = target: Gal(b1-3)GlcNAc(b1-3)Gal(b1-4)GlcNAc(b1-2)Man(a1-3)[Gal(b1-3)GlcNAc(b1-3)Gal(b1-4)GlcNAc(b1-2)Man(a1-6)]Man(b1-4)GlcNAc(b1-4)GlcNAc
# Procedure, shortened: as §1
# [16] = target: Gal(b1-3)GlcNAc(b1-3)Gal(b1-4)GlcNAc(b1-2)[Gal(b1-3)GlcNAc(b1-3)Gal(b1-4)GlcNAc(b1-6)]Man(a1-6)[Gal(b1-3)GlcNAc(b1-3)Gal(b1-4)GlcNAc(b1-2)Man(a1-3)]Man(b1-4)GlcNAc(b1-4)[Fuc(a1-6)]GlcNAc
# Procedure, shortened: as §1
# [17] = target: Gal(b1-3)GlcNAc(b1-3)Gal(b1-4)GlcNAc(b1-3)Gal(b1-4)GlcNAc(b1-2)[Gal(b1-3)GlcNAc(b1-3)Gal(b1-4)GlcNAc(b1-3)Gal(b1-4)GlcNAc(b1-6)]Man(a1-6)[Gal(b1-3)GlcNAc(b1-3)Gal(b1-4)GlcNAc(b1-3)Gal(b1-4)GlcNAc(b1-2)Man(a1-3)]Man(b1-4)GlcNAc(b1-4)[Fuc(a1-6)]GlcNAc
# Procedure, shortened: as §1
# [18] = target: Gal(b1-3)GlcNAc(b1-3)Gal(b1-4)GlcNAc(b1-6)[Gal(b1-3)GlcNAc(b1-3)]Gal(b1-4)Glc
# Procedure, shortened: as §1
# [19] = target: Gal(b1-3)GlcNAc(b1-3)Gal(b1-4)[Fuc(a1-3)]GlcNAc
# Procedure, shortened: as §1
# [20] = target: Gal(b1-3)GlcNAc(b1-3)Gal(b1-4)[Fuc(a1-3)]GlcNAc(b1-6)[Gal(b1-3)GlcNAc(b1-3)]Gal(b1-4)Glc
# Procedure, shortened: as §1
# [21] = target: Gal(b1-3)GlcNAc(b1-3)GalNAc
# Procedure, shortened: as §1
# [22] = target: Gal(b1-3)GlcNAc(b1-6)Gal(b1-4)GlcNAc
# Procedure, shortened: as §1
# [23] = target: Gal(b1-3)GlcNAc(b1-6)GalNAc
# Procedure, shortened: as §1
# [24] = target: Gal(b1-3)GlcNAc(b1-6)[Gal(b1-3)]GalNAc
# Procedure, shortened: as §1
# Gal(b1-3)GlcNAc6S = target: Gal(b1-3)GlcNAc6S
# Procedure, shortened: as §1
# [25] = target: Gal(b1-3)[Fuc(a1-4)]GlcNAc
# Procedure, shortened: as §1
# [26] = target: Gal(b1-3)[Fuc(a1-4)]GlcNAc(b1-2)Man
# Procedure, shortened: as §1
# [27] = target: Gal(b1-3)[Fuc(a1-4)]GlcNAc(b1-2)Man(a1-3)[Gal(b1-3)[Fuc(a1-4)]GlcNAc(b1-2)Man(a1-6)]Man(b1-4)GlcNAc(b1-4)[Fuc(a1-6)]GlcNAc
# Procedure, shortened: as §1
# [28] = target: Gal(b1-3)[Fuc(a1-4)]GlcNAc(b1-3)Gal(b1-3)[Fuc(a1-4)]GlcNAc
# Procedure, shortened: as §1
# [29] = target: Gal(b1-3)[Fuc(a1-4)]GlcNAc(b1-3)Gal(b1-4)[Fuc(a1-3)]GlcNAc
# Procedure, shortened: as §1
# [30] = target: Gal(b1-3)[Fuc(a1-4)]GlcNAc(b1-6)GalNAc
# Procedure, shortened: as §1
# [31] = target: Gal(b1-3)[GlcNAc(b1-6)]GalNAc
# Procedure, shortened: as §1
# [32] = target: Gal(b1-3)[Neu5Ac(a2-6)]GalNAc
# Procedure, shortened: as §1
# [33] = target: Gal(b1-3)[Neu5Ac(a2-6)]GlcNAc(b1-4)Gal(b1-4)Glc
# Procedure, shortened: as §1
# [34] = target: Gal(b1-3)[Neu5Ac(b2-6)]GalNAc
# Procedure, shortened: as §1
# Gal(b1-4)Gal = target: Gal(b1-4)Gal
# Procedure, shortened: as §1
# [35] = target: Gal(b1-4)GalNAc(a1-3)[Fuc(a1-2)]Gal(b1-4)GlcNAc
# Procedure, shortened: as §1
binder,measurement,setting,value
"CBP21 (Serratia marcescens), O83009 (protein) MNKTSRTLLSLGLLSAAMFGVSQQANAHGYVESPASRAYQCKLQLNTQCGSVQYEPQSVEGLKGFPQAGPADGHIASADKSTFFELDQQTPTRWNKLNLKTGPNSFTWKLTARHSTTSWRYFITKPNWDASQPLTRASFDLTPFCQFNDGGAIPAAQVTHQCNIPADRSGSHVILAVWDIADTANAFYQAIDVNLSK",glycan array binding signal (z-score),Gal(a1-6)Glc,-1.07
same,glycan array binding signal (z-score),Gal(b1-2)Gal,-1.48
same,glycan array binding signal (z-score),Gal(b1-3)Gal,0.337
same,glycan array binding signal (z-score),Gal(b1-3)Gal(b1-4)GlcNAc,0.038
same,glycan array binding signal (z-score),Gal(b1-3)GalNAc,0.091
same,glycan array binding signal (z-score),[1],-0.45
same,glycan array binding signal (z-score),[2],-0.828
same,glycan array binding signal (z-score),Gal(b1-3)GalNAc(b1-3)Gal,-0.7
same,glycan array binding signal (z-score),[3],0.964
same,glycan array binding signal (z-score),[4],1.25
same,glycan array binding signal (z-score),[5],1.15
same,glycan array binding signal (z-score),Gal(b1-3)GlcNAc,-0.226
same,glycan array binding signal (z-score),[6],0.425
same,glycan array binding signal (z-score),[7],0.999
same,glycan array binding signal (z-score),Gal(b1-3)GlcNAc(b1-2)Man,0.838
same,glycan array binding signal (z-score),[8],0.505
same,glycan array binding signal (z-score),[9],-0.019
same,glycan array binding signal (z-score),[10],1.17
same,glycan array binding signal (z-score),[11],0.911
same,glycan array binding signal (z-score),[12],-0.921
same,glycan array binding signal (z-score),[13],-1.55
same,glycan array binding signal (z-score),[14],0.895
same,glycan array binding signal (z-score),[15],0.699
same,glycan array binding signal (z-score),[16],3.27
same,glycan array binding signal (z-score),[17],-0.436
same,glycan array binding signal (z-score),[18],0.925
same,glycan array binding signal (z-score),[19],-1.29
same,glycan array binding signal (z-score),[20],0.446
same,glycan array binding signal (z-score),[21],-1.7
same,glycan array binding signal (z-score),[22],0.703
same,glycan array binding signal (z-score),[23],-0.485
same,glycan array binding signal (z-score),[24],0.586
same,glycan array binding signal (z-score),Gal(b1-3)GlcNAc6S,0.314
same,glycan array binding signal (z-score),[25],0.192
same,glycan array binding signal (z-score),[26],-1.07
same,glycan array binding signal (z-score),[27],-0.088
same,glycan array binding signal (z-score),[28],-0.433
same,glycan array binding signal (z-score),[29],2.27
same,glycan array binding signal (z-score),[30],-0.834
same,glycan array binding signal (z-score),[31],-0.112
same,glycan array binding signal (z-score),[32],0.111
same,glycan array binding signal (z-score),[33],-0.224
same,glycan array binding signal (z-score),[34],-0.85
same,glycan array binding signal (z-score),Gal(b1-4)Gal,-0.004
same,glycan array binding signal (z-score),[35],0.232

# Reformatted: results already given.
binder	measurement	setting	value
CBP21 (Serratia marcescens), O83009 (protein) MNKTSRTLLSLGLLSAAMFGVSQQANAHGYVESPASRAYQCKLQLNTQCGSVQYEPQSVEGLKGFPQAGPADGHIASADKSTFFELDQQTPTRWNKLNLKTGPNSFTWKLTARHSTTSWRYFITKPNWDASQPLTRASFDLTPFCQFNDGGAIPAAQVTHQCNIPADRSGSHVILAVWDIADTANAFYQAIDVNLSK	glycan array binding signal (z-score)	Gal(b1-3)GalNAc(b1-3)Gal	-0.7
same	glycan array binding signal (z-score)	[23]	-0.485
same	glycan array binding signal (z-score)	[33]	-0.224
